In all, about 52,000 sequences went through this assay and about 210 (0.4%) were called active.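 The calls were made as follows: active = gene whose silencing raises cell survival under the drug, median off-target-corrected z-score across its silencing RNAs 2 or more; inactive = the rest.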 Some of the results follow.

The nature of the experiment: Resistance to Poly (ADP-Ribose) Polymerase inhibitor: Gene Identification via Genome-wide siRNA Screen. The following applies: mouse BRCA2 R2336H ES cells, olaparib, CellTiter-Glo viability; hits give high values. The gist of the method:
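Genome-wide siRNA screen (3 siRNAs/gene, 20 nM) in mouse ES cells carrying hypomorphic BRCA2 R2336H; olaparib 500 nM added 48 h post-transfection, CellTiter-Glo viability 72 h later. Normalized to plate-median negative control; MAD z-scores, gene median, seed-adjusted.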
As to “CGUAUAAUGAGGAUGUGCUTT against D6Ertd365e”, the z-score was inactive: 1.06.

For GGGUCACUGAAGAUUAUAUTT against Inhbc, the z-score was inactive: -0.986.

With GGUUAAGGAAGUAAAAAAGTT against Gsr, the z-score was inactive: 1.25.

Regarding GGGUUGGAACAAGGUAAUUTT against Usp16, the z-score was inactive: -2.1.

In the case of GAUAGUGACAUUCUUGGAATT against Hspe1, the z-score was inactive: 0.725.

In the case of GGAAUUAAUGGCAUAGACUTT against Col4a3bp, the z-score was inactive: 1.1.

Turning to GGGAACCACACAGAGAUAATT against Cd160, the z-score was inactive: -0.899.

For the sequence “GGGCUAUCUAACAUUAACUTT against 2010208K18Rik”, the z-score is inactive: -0.15.

For “GGAGUUCCUCAAACAGGAGTT against E330028A19Rik”, the z-score was inactive: -0.427.

Regarding UAAAAUUCCCUUCUGCUCATT against Olfr814, the z-score is inactive: 1.69.

Consider “GGUUUAAAGAAAGACUGAATT against 2810032G03Rik”, for which the z-score was inactive: -1.8.

For GGAGAAUAUGUCGUCAUGATT against Gabra3, the z-score is inactive: -1.4.

With GUUCCUCAGUAUGUUGCCATT against Olfr126, the z-score was inactive: -1.52.

In the case of “GGAAACAGAAGGAAUACUUTT against D15Ertd781e”, the z-score is inactive: 0.316.

With GCCUUCAACAUUCGGACUUTT against Dnase1, the z-score was inactive: -1.1.

Take CGUAGCAAUCUUGGUUGCUTT against Hoxa3: the z-score is inactive: 0.734.

GGAAGAGAAAGCAAAGUCATT against Ddx19: the z-score was inactive: 0.454.

On to GGAAUCCAUGUUAGUAGCCTT against Lrsam1, for which the z-score is inactive: 0.152.

Take “GGUGGAGACUGUGUCUAGUTT against 9430057O19Rik”: the z-score was inactive: -0.604.

In the case of UACUACAACCGCACAGUGATT against Tmc6, the z-score is inactive: -0.308.

Turning to GGGAAAUUUCUCACUCUCUTT against Olfr1362, the z-score was inactive: 0.306.

As for GCGAUAUAAUAUGGAAAGATT against Plcg2, the z-score is inactive: -0.331.

GGGCUUCUGUGCAUUGCAUTT against Asb3: the z-score was inactive: 0.542.

With GGUGGUCUACAUAGCUUGUTT against Kdelr1, the z-score is inactive: 0.614.

For “GGUCAGUCGGUUGUUACUATT against 5830472M02Rik”, the z-score is inactive: -1.74.

Regarding “GAAAAAUAAUGGAGUUUGGTT against D17Wsu155e”, the z-score is inactive: 0.781.

With CCAGUUUCGGAUUCAGUAGTT against Kb36, the z-score is inactive: -0.936.

Turning to GGUCCUACUUGUUCAUUGATT against Il1rl1, the z-score is inactive: -0.537.

With “GCCAGAGACACGAUCCUCUTT against 1110020M19Rik”, the z-score is inactive: -0.784.

As for GGCAUAGCUCAGUGAUAGCTT against Tmem19, the z-score is inactive: 1.44.

Regarding “GGGUACGGUUCAGUGACAATT against 6030419C18Rik”, the z-score was inactive: 0.202.

In the case of GGAUCUGAUAAACUCAUUCTT against Lad1, the z-score is inactive: 1.41.

Turning to GCAGACAAUAUCUCUGAAUTT against Olfr459, the z-score was inactive: 0.49.

As for GGACCUCUGUUUCCAGGAGTT against G6pc3, the z-score is inactive: 0.285.

For CGAUUCCCUGGUUAUGACUTT against Rpl5, the z-score is inactive: -3.11.

Take GGUGGAUUUUAAGUUUCCUTT against Aurkc: the z-score was inactive: 0.114.

With CGAAUAAACUUGAUUUGCCTT against Ier3, the z-score was inactive: 0.73.

Consider “GGAGCUCAAACAGGAGAACTT against B230384L07”, for which the z-score was inactive: 0.0277.

Take GGAACGAGUUUUGAAAAAATT against Creb3l3: the z-score was inactive: 0.523.

Consider “GGGAAACGUGAAUUAGUAATT against 1110051M20Rik”, for which the z-score was inactive: -0.195.

GGAGGUACUUACAAUUUUGTT against Kpna3: the z-score is inactive: 2.14.

Consider GGAUAGCAAUUACCUGCUATT against Strap, for which the z-score was inactive: -1.35.

Regarding GGUCAAGUAUGAUGCUGAUTT against AI847670, the z-score is inactive: 0.515.

On to GGUACAGAACAGGAUGGUATT against Zbtb33, for which the z-score is inactive: 0.328.

For GGGUACAAAGCAACAUUGGTT against Disp1, the z-score was inactive: -2.22.

Turning to GGUGUUCUAAUUCUGAGGCTT against Tcstv1, the z-score was inactive: 0.0975.

As to GGAAGAAUCUUUCUGAUGGTT against Pon3, the z-score was inactive: -1.32.

GGUAGAGGAUGCGAUGCUGTT against Msi2h: the z-score is inactive: -0.84.

On to “GGCAAUAAGUAAACACCUGTT against 0610008F07Rik”, for which the z-score was inactive: 0.447.

In the case of GGAGAAAAAGCAACUUCAATT against Epsti1, the z-score is inactive: 0.263.

In the case of GGUAAAUUCAACUGGAAGGTT against Lyar, the z-score is inactive: 1.66.

Consider GGAAAACCAGGUGAACCUCTT against Gch1, for which the z-score is inactive: 0.307.

As for GUUAACCAAAACAAAGGCUTT against Hist1h2ab, the z-score was inactive: 1.09.

As for GGACAUCCGACACUUUAACTT against Abcb9, the z-score is inactive: 0.245.

Turning to GGACUUUGAGGAGAAGAAGTT against Maml1, the z-score is inactive: -0.508.

For the sequence “GGAGUGUUGCCAGUUCCUATT against 4432405B04Rik”, the z-score is inactive: 0.443.

Turning to “CGAGCUUAUGCUGAAACCATT against 3830417A13Rik”, the z-score is inactive: -1.06.

As to GGACUGAGAAUCUUCUGUATT against Kctd4, the z-score is inactive: -0.224.

With CCAAAUAUUGCCUAGCUGCTT against Qtrtd1, the z-score is inactive: -0.0841.

On to GGAAAACCGGAACAACCAGTT against Kpna2, for which the z-score was inactive: -0.469.

For CCCGUAGGUAAUACAAAUATT against Foxd4, the z-score is inactive: 0.353.

On to GCUUGCAUUCAUUUCAUACTT against Ezh2, for which the z-score was inactive: -0.803.

For the sequence CGCCUUAUGACAUCCGAUUTT against Dntt, the z-score is inactive: 0.116.

Regarding GGGAGCAACAGUGGUUGGATT against Solt, the z-score is inactive: -2.1.

For CCGACGUAGAGAAAAGGGATT against Chchd1, the z-score was inactive: 0.424.

Consider “CCGAUGCCAUCAAGUUUGATT against 1110033J19Rik”, for which the z-score was inactive: -1.46.

Source of the values: PubChem BioAssay AID1347423 (Functional Genomics Laboratory (NCATS/FGL), 2020).
